Source: PubChem BioAssay AID504834 (National Center for Advancing Translational Sciences (NCATS), 2011)
About 22,000 (6.9%) of roughly 320,000 compounds were called active. This list was built around the results that the source calls inconclusive (neither active nor inactive); the mix of calls is not that of the screen. The call rests on the fitted dose curve; in most records, active means well fitted inhibition curve with a large enough effect; inconclusive means small, poorly fitted or top-dose-only effect, or another doubt; inactive means no such curve, though single readings can be large or run the other way. Where the call is inconclusive, the potency comes from a doubtful curve fit.

assay: Primary qHTS for delayed death inhibitors of the malarial parasite plastid, 96 hour incubation; conditions: P. falciparum luciferase reporter growth; series mostly up to 28.7 µM; activity change, negative = inhibition: at the top concentration
In short: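 P. falciparum expressing integrated firefly luciferase, in erythrocytes at 2% hematocrit, 0.05% parasitemia, incubated with compounds 96 h at 37 C, 5% CO2. Growth inhibition read as loss of luminescence; two-generation exposure targets delayed-death apicoplast inhibitors.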
On the % scale 0 is the no-effect control and ±100 the full control effect; potency means the concentration at half of the fitted maximal effect.

Compound | Potency | activity change, negative = inhibition
COc1ccc(C2=NN(C(=O)CSc3ncccn3)C(c3ccc(C)cc3)C2)cc1 (configuration not stated) | inconclusive: 11.7 µM [inhibitor, single point] | –
Cc1cc(C)c2c(CN3CCOCC3)cc(=O)oc2c1C | inconclusive: 7.38 µM [inhibitor, partial curve] | –
O=C(O)c1ccccc1C(=O)c1ccc(-c2ccccc2)cc1 | inconclusive: 0.0522 µM [inhibitor, full curve, poor fit] | –
CCOc1cc(-c2nc(-c3ccc(C)nc3OCC)no2)cc(OCC)c1OCC | – | inactive: -1.24%
Cc1sc(NC(=O)C(C)C)c(C(=O)Nc2ccccc2)c1C | – | inactive: -25.6%
COc1ccc(C(=O)Nc2cccc(-c3ccc4nncn4n3)c2)cc1OC | inconclusive: 9.28 µM [inhibitor, single point] | –
CCCCNC(=O)C1=C(N)C(C(=O)Nc2ccc(C)c(S(=O)(=O)N3CCCCC3)c2)SC1=Nc1ccc(C)cc1C (configuration not stated) | active: 10.4 µM | –
Cc1cc(C)c2cc(CN(CCO)Cc3nnnn3Cc3ccc(F)cc3)c(=O)[nH]c2c1 | inconclusive: 18.5 µM [inhibitor, single point] | –
CC(=O)c1cccc(NC(=S)NC(=O)c2cccc(C)c2)c1 | – | inactive: 11.5%
COC(=O)c1[nH]c2ccccc2c1NC(=O)CN1CCN(C(=O)c2ccco2)CC1 | inconclusive: 11.7 µM [inhibitor, partial curve] | –
O=C(O)C1=C[C@H](c2ccccc2)C[C@H](OCc2ccc(CO)cc2)O1 | – | inactive: 62.7%
Cc1ccc(Cl)cc1NC(=O)C(Cc1ccccc1)N1C(=O)C2C3CCC(C3)C2C1=O (configuration not stated) | – | inactive: 17.1%
CCc1ccc(NC(=O)C(C)OC(=O)CC(NC(C)=O)c2ccccc2)cc1 (configuration not stated) | – | inactive: 9.53%
COc1cc(/C=C2\C(=N)N3N=C(S(C)(=O)=O)SC3=NC2=O)ccc1OS(=O)(=O)c1ccc(C)cc1 | inconclusive: 0.0208 µM [inhibitor, full curve, poor fit] | –
CC(CNS(=O)(=O)c1ccccc1)(c1ccccc1)N1CCOCC1 (configuration not stated) | inconclusive: 18.5 µM [inhibitor, partial curve, poor fit] | –
CC(C)NC(=O)c1ccccc1NC(=O)C1CC(=O)N(C(C)C)C1 (configuration not stated) | – | inactive: 158%
COc1ccc(-n2nnnc2SCC(=O)NCCc2ccccc2)cc1OC | inconclusive: 8.28 µM [inhibitor, partial curve, poor fit] | –
Clc1ccc(-c2nc(N3CCCCC3)nc3ccccc23)cc1 | – | inactive: -16.9%
c1ccc(Cc2nnc(-c3ccccc3)o2)cc1 | – | inactive: 19.1%
CCOC(=O)[C@H]1[C@H]2COc3ccccc3[C@@H]2N2C(=O)c3cc(C)ccc3NC(=O)[C@@]12C | active: 13.1 µM | –
COc1ccc(NC(=O)CN(C)C(=O)CSC(c2ccccc2)c2ccccc2)cc1 | inconclusive: 0.522 µM [inhibitor, full curve, poor fit] | –
Cc1cc(C)cc(N2C(=O)NC(=O)/C(=C\c3cccn3-c3ccccc3)C2=O)c1 | inconclusive: 13.1 µM [inhibitor, partial curve] | –
COc1ccc(CNC(=O)COC(=O)c2[nH]c(C)c(C(C)=O)c2C)cc1OC | – | inactive: -25.1%
O=[N+]([O-])c1cnn(-c2nc(-c3ccccc3)cc(C(F)(F)F)n2)c1 | – | inactive: 1.81%

Compound | Potency | activity change, negative = inhibition
CCOC(=O)C1=C(C)N=c2s/c(=C/c3ccc(OCC(=O)O)cc3)c(=O)n2C1c1ccc(SC)cc1 (configuration not stated) | inconclusive: 2.08 µM [inhibitor, full curve] | –
COc1cc([C@@H]2CC=C(C(=O)O)[C@H](c3ccccc3F)N2S(=O)(=O)c2ccc(C)cc2)cc(OC)c1OC | active: 10.4 µM | –
Cc1c(Cl)c([N+](=O)[O-])nn1CC(=O)NCC1CCCO1 (configuration not stated) | inconclusive: 13.1 µM [inhibitor, partial curve] | –
COc1ccc([N+](=O)[O-])cc1NC(=O)COC(=O)C1CC1 | inconclusive: 0.0131 µM [inhibitor, full curve, poor fit] | –
Cc1oc2c(c1C(=O)O)C(=O)c1ccccc1C2=O | inconclusive: 3.29 µM [inhibitor, partial curve, poor fit] | –
CSc1nc2nc3c(cc2c(=O)[nH]1)C(O)Oc1ccc(C)cc1-3 (configuration not stated) | inconclusive: 0.738 µM [inhibitor, full curve, poor fit] | –
O=C(CN1CCC(NC(=O)C2CC2)CC1)Nc1cccc(F)c1 | – | inactive: 11.8%
Cc1ccc(N(Cc2cc(=O)[nH]c3ccccc23)C(=O)c2ccco2)cc1 | inconclusive: 20.8 µM [inhibitor, partial curve, poor fit] | –
CCOC(=O)Cc1ncccc1C(=O)Nc1ccc(OC(F)(F)F)cc1 | inconclusive: 11.7 µM [inhibitor, single point] | –
OCCCc1ccc(O)c(O)c1 | inconclusive: 18.5 µM [inhibitor, single point] | –
Cc1cccc(CN2C(=O)N/C(=C/c3ccc(C)s3)C2=O)c1 | active: 3.29 µM | –
C=C(C)c1cccc(C(C)(C)NC(=O)Nn2cnnc2)c1 | inconclusive: 13.1 µM [inhibitor, single point] | –
CCN1C(=O)S/C(=C/c2ccc(Oc3ccc([N+](=O)[O-])cn3)c(OC)c2)C1=O | inconclusive: 18.5 µM [inhibitor, single point] | –
Cc1cc(C)cc(NC(=O)c2ccc(S(=O)(=O)N(C)CC3CCCO3)cc2)c1 (configuration not stated) | active: 2.62 µM | –
Cc1ccccc1N=C/C=C1/C=C(c2ccccc2)OC(C)(C)O1 | inconclusive: 18.5 µM [inhibitor, partial curve, poor fit] | –
Cc1oc(C(C)(C)C)cc1C(=O)N1CCCC1C(=O)O (configuration not stated) | – | inactive: 6.48%
O=C(NCc1cccs1)C(Cc1ccccc1)n1cccc1 (configuration not stated) | – | inactive: -15.5%
CC(C(=O)N1CCOCC1)(c1ccccc1)c1ccccc1 | – | inactive: -8.53%
CCOc1ccc(NC(=O)Cn2cc(C(=O)c3ccco3)c3ccccc32)cc1 | – | inactive: 9.45%
CCCCOc1ccc(N(CC(=O)NCC2CCCO2)C(=O)CCC(=O)Nc2cc(C)ccn2)cc1 (configuration not stated) | inconclusive: 14.7 µM [inhibitor, single point] | –
CC(C)(CO)NCc1cccc(OCc2ccc(Cl)cc2)c1 | inconclusive: 18.5 µM [inhibitor, single point] | –
COc1ccc(CNC(=O)CN(Cc2ccccc2)C(=O)c2csnn2)cc1 | inconclusive: 3.7 µM [inhibitor, single point] | –
Cc1nn2c(=O)cc(COC(=O)c3c(F)cccc3Cl)nc2s1 | inconclusive: 6.57 µM [inhibitor, partial curve, poor fit] | –
CCOc1ccc(NC2CCCCC2NS(=O)(=O)c2ccccc2)cc1 (configuration not stated) | – | inactive: 27.7%

3 structures from above, sorted by SMILES length, largest number first:
Compound | Potency | activity change, negative = inhibition
CCOC(=O)C1=C(C)N=c2s/c(=C/c3ccc(OCC(=O)O)cc3)c(=O)n2C1c1ccc(SC)cc1 (configuration not stated) | inconclusive: 2.08 µM [inhibitor, full curve] | –
Cc1ccccc1N=C/C=C1/C=C(c2ccccc2)OC(C)(C)O1 | inconclusive: 18.5 µM [inhibitor, partial curve, poor fit] | –
CC(C(=O)N1CCOCC1)(c1ccccc1)c1ccccc1 | – | inactive: -8.53%

More entries

Compound | Potency | activity change, negative = inhibition
COc1ccc(S(=O)(=O)N2CC(=O)Nc3ccccc32)cc1 | inconclusive: 2.08 µM [inhibitor, full curve, poor fit] | –
CN(Cc1ccccn1)Cc1cn(Cc2ccccc2)nc1-c1ccc2c(c1)OCO2 | inconclusive: 18.5 µM [inhibitor, single point] | –
COc1ccc(CCCc2nnc(SCC(=O)Nc3ccccc3F)o2)cc1 | – | inactive: -15.5%
O=C(COC(=O)c1ccccc1[N+](=O)[O-])Nc1cccnc1Cl | – | inactive: 13.2%
O=C(CC(c1ccccc1)c1cc(Br)ccc1O)N1CCCCC1 (configuration not stated) | inconclusive: 3.29 µM [inhibitor, partial curve] | –
COc1ccc(CNCCC(c2ccccc2)c2ccc3c(c2)OCO3)cc1 (configuration not stated) | inconclusive: 10.4 µM [inhibitor, partial curve, poor fit] | –
O=C(/C=C/c1ccccc1Cl)c1ccc[nH]1 | inconclusive: 18.5 µM [inhibitor, single point] | –
COc1ccc(NC(=O)N2CCCC2C(=O)Nc2ccc(C)cc2C)cc1 (configuration not stated) | – | inactive: 5.67%
CC1CCC(C(C)C)C(OC(=O)C[n+]2cccc(C(N)=O)c2)C1 (configuration not stated) | – | inactive: 22.1%
O=C(NC1CCN(C(=S)NCc2ccco2)CC1)NC12CC3CC(CC(C3)C1)C2 | inconclusive: 0.37 µM [inhibitor, full curve, poor fit] | –
Cn1c(/C=C/c2ccc([N+](=O)[O-])o2)nc2ccccc2c1=O | inconclusive: 0.0415 µM [inhibitor, full curve, poor fit] | –
C=CCc1c(C)nc(C)nc1N/N=C/c1ccc(F)cc1 | – | inactive: -3.62%
COCCN1Cc2cccc(C(=O)Nc3cccnc3)c2C1=O | inconclusive: 18.5 µM [inhibitor, single point] | –
COc1cccc(OC)c1C(=O)NCCSC1CCCCC1 | – | inactive: -41.3%
COc1ccc(CC(C)NC2CCCCCC2)cc1 (configuration not stated) | inconclusive: 8.28 µM [inhibitor, partial curve, poor fit] | –
C/C(=N\O)C(C)(C)Nc1cccc(Br)c1 | – | inactive: 33.5%
CC(C(=O)Nc1ccc(N2CCOCC2)cc1)N1C(=O)NC(C)(C)C1=O (configuration not stated) | – | inactive: -8.49%
COc1cccc(NC(=O)CN2CCN(CC(=O)Nc3ccccc3Cl)CC2)c1 | – | inactive: -11%
Cc1cccc(N(C)S(=O)(=O)c2nnc(NC(=O)c3ccco3)s2)c1 | inconclusive: 18.5 µM [inhibitor, single point] | –
O=S(=O)(/N=C(/c1ccc(F)cc1)N1CCCCC1)c1ccc(Cl)cc1 | – | inactive: 121%
Cc1ccc2[nH]c3c(c2c1)CN(C(=O)CN(C)CC1OCCO1)CC3 | inconclusive: 18.5 µM [inhibitor, single point] | –
O=C(N/N=C/c1cccn1-c1ccc([N+](=O)[O-])cc1)c1cccnc1 | inconclusive: 9.28 µM [inhibitor, partial curve] | –
CN(C)c1ccc(C2Nc3ccccc3C(=O)N2CCN2CCNC2=O)cc1 (configuration not stated) | inconclusive: 5.86 µM [inhibitor, partial curve, poor fit] | –
Cc1nn(-c2ccccc2)c(N)c1C(O)(CSc1nccn1C)C(F)(F)F (configuration not stated) | inconclusive: 6.57 µM [inhibitor, partial curve, poor fit] | –
